Results deposited as PubChem BioAssay AID1259308 (NCATS, 2017).
In all, the deposit lists about 59,000 reagents; shown is an unselected part. About 1,510 of them (2.6%) count as active. 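Calls use total luciferase alone and ignore viability, so some active siRNAs may act by altering cell number.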 Entries without a mark were called inactive.

Purpose: 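Genes whose loss raises luciferase production in HEK293 cells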 (primary screen)
Cells: human HEK293 embryonic kidney cells stably expressing firefly luciferase (HEK-CMV-Luc2-Hygro)
Reagent: single siRNA against human genes, 0.8 pmol siRNA per well
Duration: 72 h
Measured: 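Luciferase light (ONE-Glo) measured on one replicate plate set and viability (CellTiter-Glo) on the other, scaled to a negative control siRNA, with robust z-scores and luciferase per cell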
Scale: total luciferase, z-score and total luciferase, % of control: higher = more reporter protein produced; luciferase per cell, z-score: higher = more reporter output per viable cell; viable cells, % of control: higher = more viable cells
Call rule: 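Active when the median/MAD z-score for overall luciferase is greater than 3; a gene was taken forward for validation with new siRNAs if at least two of its three siRNAs passed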
Meaning of the calls: active = raised luciferase; inactive = no rise

| gene | PubChem SID | total luciferase, z-score | total luciferase, % of control | luciferase per cell, z-score | viable cells, % of control |
| --- | --- | --- | --- | --- | --- |
| AKAIN1 (GeneID 642597) | SID160768646 | 2.99 | 141 | 2.62 | 79.3 |
| AKAIN1 (GeneID 642597) | SID160768647 | 0.77 | 97.2 | 0.844 | 87 |
| AKAIN1 (GeneID 642597) | SID160768648 | 1.88 | 119 | 2.43 | 70.4 |
| RHOT1 (GeneID 55288) | SID160743448 | 1.26 | 107 | 0.282 | 111 |
| RHOT1 (GeneID 55288) | SID160743449 | -0.646 | 69 | -1.29 | 108 |
| RHOT1 (GeneID 55288) | SID160743451 | -1.13 | 59.5 | -1.49 | 98.4 |
| PRAMEF10 (GeneID 343071) | SID160764686 | 0.309 | 88 | 0.118 | 95.4 |
| PRAMEF10 (GeneID 343071) | SID160764687 | -0.251 | 76.9 | 0.736 | 70.8 |
| PRAMEF10 (GeneID 343071) | SID160764688 | -0.188 | 78.1 | -0.588 | 102 |
| HLA-DMA (GeneID 3108) | SID160774979 | -0.281 | 76.3 | 0.267 | 79.5 |
| HLA-DMA (GeneID 3108) | SID160774980 | 1.27 | 107 | 0.771 | 97.7 |
| HLA-DMA (GeneID 3108) | SID160774981 | -2.54 | 31.3 | -2.47 | 67.1 |
| B4GAT1 (GeneID 11041) | SID160729807 | -0.66 | 68.8 | -0.47 | 87 |
| B4GAT1 (GeneID 11041) | SID160729808 | -1.39 | 54.3 | -0.806 | 75 |
| B4GAT1 (GeneID 11041) | SID160729809 | 0.652 | 94.9 | 0.0514 | 105 |
| SH3GL3 (GeneID 6457) | SID160716679 | 0.392 | 89.7 | -0.0323 | 101 |
| SH3GL3 (GeneID 6457) | SID160716680 | 0.197 | 85.8 | 0.0614 | 94.4 |
| SH3GL3 (GeneID 6457) | SID160733952 | -1.12 | 59.6 | -0.209 | 70.4 |
| HLA-F (GeneID 3134) | SID160775024 | 0.715 | 96.1 | 1.04 | 81.8 |
| HLA-F (GeneID 3134) | SID160775025 | 0.282 | 87.5 | 0.777 | 79.7 |
| HLA-F (GeneID 3134) | SID160775026 | -0.733 | 67.3 | 0.095 | 73.4 |
| PHF23 (GeneID 79142) | SID160748681 | 0.246 | 86.8 | -0.133 | 100 |
| PHF23 (GeneID 79142) | SID160748682 | -0.851 | 65 | -1.3 | 102 |
| PHF23 (GeneID 79142) | SID160748683 | 0.352 | 88.9 | -0.749 | 121 |

Laid out differently: results already given
gene,PubChem SID,"total luciferase, z-score","total luciferase, % of control","luciferase per cell, z-score","viable cells, % of control"
HLA-DMA (GeneID 3108),SID160774981,-2.54,31.3,-2.47,67.1
B4GAT1 (GeneID 11041),SID160729807,-0.66,68.8,-0.47,87
B4GAT1 (GeneID 11041),SID160729808,-1.39,54.3,-0.806,75
B4GAT1 (GeneID 11041),SID160729809,0.652,94.9,0.0514,105
SH3GL3 (GeneID 6457),SID160716679,0.392,89.7,-0.0323,101
SH3GL3 (GeneID 6457),SID160716680,0.197,85.8,0.0614,94.4
SH3GL3 (GeneID 6457),SID160733952,-1.12,59.6,-0.209,70.4
HLA-F (GeneID 3134),SID160775024,0.715,96.1,1.04,81.8
HLA-F (GeneID 3134),SID160775025,0.282,87.5,0.777,79.7

Next records follow:
| gene | PubChem SID | total luciferase, z-score | total luciferase, % of control | luciferase per cell, z-score | viable cells, % of control |
| --- | --- | --- | --- | --- | --- |
| GOLPH3L (GeneID 55204) | SID160733590 | 0.00958 | 82.1 | -0.642 | 109 |
| GOLPH3L (GeneID 55204) | SID160743217 | -1.45 | 53 | -1.81 | 95.5 |
| GOLPH3L (GeneID 55204) | SID160743219 | -0.993 | 62.1 | -0.914 | 88.3 |
| IFT122P3 (GeneID 653712) | SID160726407 | 0.19 | 85.7 | 0.211 | 90.5 |
| IFT122P3 (GeneID 653712) | SID160726408 | -0.207 | 77.8 | 0.195 | 82.6 |
| IFT122P3 (GeneID 653712) | SID160726409 | 0.199 | 85.9 | 0.45 | 85.2 |
| H2BC9 (GeneID 8345) | SID160719882 | 2.33 | 128 | 2.21 | 80.2 |
| H2BC9 (GeneID 8345) | SID160719883 | -0.746 | 67 | -0.139 | 77.7 |
| H2BC9 (GeneID 8345) | SID160724152 | -0.688 | 68.2 | -0.665 | 90.8 |
| HOXB8 (GeneID 3218) | SID160731079 | 3.56 (active) | 153 | 2.72 | 83.4 |
| HOXB8 (GeneID 3218) | SID160775212 | -0.912 | 63.7 | -0.349 | 78.1 |
| HOXB8 (GeneID 3218) | SID160775214 | 0.282 | 87.5 | 0.0452 | 96.6 |
| TRIB1 (GeneID 10221) | SID160727216 | -0.377 | 74.4 | 0.0236 | 82.6 |
| TRIB1 (GeneID 10221) | SID160727220 | 0.218 | 86.2 | -0.17 | 101 |
| TRIB1 (GeneID 10221) | SID160727230 | -1.48 | 52.5 | -1 | 76.3 |
| ASCC3 (GeneID 10973) | SID160729657 | -0.303 | 75.9 | -0.178 | 88.8 |
| ASCC3 (GeneID 10973) | SID160729658 | -0.691 | 68.1 | -1.03 | 100 |
| ASCC3 (GeneID 10973) | SID160730488 | 0.782 | 97.4 | 1.82 | 67.4 |
| DELE1 (GeneID 9812) | SID160723146 | 0.756 | 96.9 | 2.1 | 62.4 |
| DELE1 (GeneID 9812) | SID160723147 | 3.27 (active) | 147 | 3.17 | 71.2 |
| DELE1 (GeneID 9812) | SID160723148 | 1.27 | 107 | 1.6 | 78.7 |
| ADRA2B (GeneID 151) | SID160714989 | 1.93 | 120 | 1.31 | 95.3 |
| ADRA2B (GeneID 151) | SID160715000 | 0.869 | 99.2 | 0.301 | 102 |
| ADRA2B (GeneID 151) | SID160715011 | -0.75 | 67 | 0.0489 | 73.9 |
| CDK11A (GeneID 728642) | SID160771991 | 1.15 | 105 | 1.28 | 83.7 |
| CDK11A (GeneID 728642) | SID160771992 | -0.25 | 76.9 | -0.681 | 103 |
| CDK11A (GeneID 728642) | SID160771993 | 3.38 (active) | 149 | 2.74 | 81 |
| EFNB1 (GeneID 1947) | SID160758618 | -0.554 | 70.9 | -0.256 | 84.7 |
| EFNB1 (GeneID 1947) | SID160758627 | 0.277 | 87.4 | 0.172 | 93.3 |
| EFNB1 (GeneID 1947) | SID160758637 | -0.843 | 65.1 | -0.0565 | 73.9 |
| KAT8 (GeneID 84148) | SID160751794 | -0.204 | 77.8 | -0.0594 | 88.3 |
| KAT8 (GeneID 84148) | SID160751796 | -0.738 | 67.2 | -0.789 | 92.5 |
| KAT8 (GeneID 84148) | SID160751797 | -0.391 | 74.1 | -0.453 | 93.3 |
